Data on 1 compound can be found in ChEMBL document CHEMBL1268807, “Discovery of small molecule inhibitors of the PH domain leucine-rich repeat protein phosphatase (PHLPP) by chemical and virtual screening” (J Med Chem, 2010).

In general, IC50 refers to the midpoint of a concentration-inhibition curve.

The nature of this assay: Inhibition of PHLPP expressed in 24 hrs serum starved Cos7 cells assessed as increase of Akt phosphorylation after 30 mins by immunoblotting. As to conditions: COS-7. On the technique in general: A western blot detects proteins with antibodies after separation by electrophoresis.

On to `Cc1cc(/N=N/c2ccc(/N=N/c3ccc(O)c(C(=O)O)c3)cc2)c(N)cc1N`, for which the IC50 is 70 µM.
